# In the supplement of paper PMC12819154, “High-throughput peptide-centric local stability assay extends protein–ligand identification to membrane proteins, tissues and bacteria” (Nature Structural & Molecular Biology, 2025):
# By UniProt entry, the sequences of proteins in these tests, tags left out. Where a name states a change or a piece, a line headed by the entry shows the natural chain unless it says otherwise.
# UniProt Q91YE6, whole entry: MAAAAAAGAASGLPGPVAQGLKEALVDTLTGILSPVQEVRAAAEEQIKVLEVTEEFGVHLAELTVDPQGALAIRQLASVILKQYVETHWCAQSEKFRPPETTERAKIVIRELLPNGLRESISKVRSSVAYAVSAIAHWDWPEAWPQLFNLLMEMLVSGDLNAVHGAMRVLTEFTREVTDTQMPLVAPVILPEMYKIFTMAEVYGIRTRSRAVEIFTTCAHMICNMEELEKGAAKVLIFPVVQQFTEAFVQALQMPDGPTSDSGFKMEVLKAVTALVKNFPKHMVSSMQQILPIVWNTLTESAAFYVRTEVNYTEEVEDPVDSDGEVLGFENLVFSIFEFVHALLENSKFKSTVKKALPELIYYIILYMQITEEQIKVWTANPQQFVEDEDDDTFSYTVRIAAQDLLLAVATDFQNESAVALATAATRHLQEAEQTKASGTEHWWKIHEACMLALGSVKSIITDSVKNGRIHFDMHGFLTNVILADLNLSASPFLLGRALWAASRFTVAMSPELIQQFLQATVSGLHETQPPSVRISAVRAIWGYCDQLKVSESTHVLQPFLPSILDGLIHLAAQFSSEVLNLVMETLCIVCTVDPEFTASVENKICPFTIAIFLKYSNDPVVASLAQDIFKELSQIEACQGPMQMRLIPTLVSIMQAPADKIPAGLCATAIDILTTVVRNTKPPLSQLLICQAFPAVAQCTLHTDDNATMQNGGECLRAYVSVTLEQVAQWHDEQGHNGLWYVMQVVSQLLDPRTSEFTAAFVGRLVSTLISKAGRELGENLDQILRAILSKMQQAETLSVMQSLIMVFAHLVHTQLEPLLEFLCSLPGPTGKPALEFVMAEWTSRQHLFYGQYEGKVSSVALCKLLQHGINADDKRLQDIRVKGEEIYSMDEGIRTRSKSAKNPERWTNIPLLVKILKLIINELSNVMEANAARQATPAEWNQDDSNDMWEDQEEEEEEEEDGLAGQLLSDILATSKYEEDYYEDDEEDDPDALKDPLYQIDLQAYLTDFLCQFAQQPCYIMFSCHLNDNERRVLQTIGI
# UniProt Q91WB7: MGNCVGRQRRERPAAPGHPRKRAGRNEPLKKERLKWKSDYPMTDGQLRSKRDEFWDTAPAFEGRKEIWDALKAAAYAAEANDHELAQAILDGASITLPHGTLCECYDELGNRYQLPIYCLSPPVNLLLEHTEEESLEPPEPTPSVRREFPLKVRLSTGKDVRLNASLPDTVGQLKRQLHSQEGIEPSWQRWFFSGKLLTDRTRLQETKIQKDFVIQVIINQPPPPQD
# UniProt Q91VD9, whole entry: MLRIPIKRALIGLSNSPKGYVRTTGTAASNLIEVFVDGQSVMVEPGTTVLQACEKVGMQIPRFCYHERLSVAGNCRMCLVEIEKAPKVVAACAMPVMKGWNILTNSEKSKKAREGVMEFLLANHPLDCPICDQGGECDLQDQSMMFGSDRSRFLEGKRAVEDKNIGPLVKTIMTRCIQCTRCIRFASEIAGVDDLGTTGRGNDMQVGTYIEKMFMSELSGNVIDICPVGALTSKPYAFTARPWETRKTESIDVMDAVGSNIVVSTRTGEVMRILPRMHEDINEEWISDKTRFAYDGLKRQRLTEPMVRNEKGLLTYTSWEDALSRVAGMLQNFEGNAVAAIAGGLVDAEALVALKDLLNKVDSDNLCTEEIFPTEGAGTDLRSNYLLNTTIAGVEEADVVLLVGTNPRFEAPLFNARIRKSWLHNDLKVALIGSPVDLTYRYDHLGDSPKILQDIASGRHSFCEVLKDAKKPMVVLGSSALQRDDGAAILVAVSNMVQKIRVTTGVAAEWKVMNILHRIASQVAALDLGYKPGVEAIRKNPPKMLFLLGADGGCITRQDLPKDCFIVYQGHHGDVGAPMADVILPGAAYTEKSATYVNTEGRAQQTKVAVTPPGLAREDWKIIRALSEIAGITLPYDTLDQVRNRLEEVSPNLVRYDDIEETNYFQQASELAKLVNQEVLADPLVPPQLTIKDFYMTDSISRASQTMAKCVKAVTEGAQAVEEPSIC
# UniProt Q91W40: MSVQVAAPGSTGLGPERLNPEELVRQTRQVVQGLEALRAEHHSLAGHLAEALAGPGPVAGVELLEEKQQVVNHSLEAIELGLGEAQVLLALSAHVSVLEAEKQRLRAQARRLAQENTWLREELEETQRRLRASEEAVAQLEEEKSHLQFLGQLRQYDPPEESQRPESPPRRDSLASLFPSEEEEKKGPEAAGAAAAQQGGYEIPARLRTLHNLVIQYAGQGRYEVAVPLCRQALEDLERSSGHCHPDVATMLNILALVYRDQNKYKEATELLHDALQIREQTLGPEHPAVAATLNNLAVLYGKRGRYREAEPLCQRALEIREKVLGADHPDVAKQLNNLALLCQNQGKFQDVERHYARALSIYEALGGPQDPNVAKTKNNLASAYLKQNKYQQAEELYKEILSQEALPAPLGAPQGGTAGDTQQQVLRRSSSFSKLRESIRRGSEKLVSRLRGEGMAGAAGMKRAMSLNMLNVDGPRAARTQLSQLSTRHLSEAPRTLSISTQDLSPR
# UniProt Q91YU3: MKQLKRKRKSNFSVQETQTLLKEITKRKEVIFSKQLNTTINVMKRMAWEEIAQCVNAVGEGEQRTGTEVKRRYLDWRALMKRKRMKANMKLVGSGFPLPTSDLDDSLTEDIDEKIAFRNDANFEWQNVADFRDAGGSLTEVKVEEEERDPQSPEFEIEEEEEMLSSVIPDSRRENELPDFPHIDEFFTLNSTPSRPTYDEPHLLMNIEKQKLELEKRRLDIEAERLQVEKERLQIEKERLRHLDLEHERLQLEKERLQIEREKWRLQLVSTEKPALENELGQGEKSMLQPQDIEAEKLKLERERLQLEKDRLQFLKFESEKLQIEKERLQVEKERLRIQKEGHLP
# This is one part of the list. Small differences around the control level are noise.
# Compound: CN[C@@H]1C[C@H]2O[C@@](C)([C@@H]1OC)n1c3ccccc3c3c4c(c5c6ccccc6n2c5c31)C(=O)NC4 [staurosporine]
# Assay: log2 fold change of tryptic peptide abundance, ligand vs vehicle (limited proteolysis) (log2 ratio); higher = more trypsin-susceptible (destabilized)
# Conditions: ligand concentration: 20 uM; sample: mouse liver crude lysate; replicate design: treated separately
row,Target,log2 fold change
1,"UniProt Q91YE6 (peptide sequence: ELLPNGLR, peptide start residue: 111)",0.361
2,"UniProt Q91WB7 (peptide sequence: QLHSQEGIEPSWQR, peptide start residue: 177)",-0.426
3,"UniProt Q91VD9 (peptide sequence: LSVAGNCR, peptide start residue: 69)",-0.313
4,"UniProt Q91W40 (peptide sequence: RSSSFSKLR, peptide start residue: 429)",-0.0669
5,"UniProt Q91YU3 (peptide sequence: FESEKLQIEKER, peptide start residue: 317)",0.334
